PubChem BioAssay AID1259425 | University of Nebraska Medical Center | 2018
Screen: 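Compare each knockdown with KSR1 silencing using changes in marker transcripts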 (primary screen). Cell system: HCT116 human colon cancer cells. Knock-down reagent: siRNA pool against human genes, 50 nM siRNA. Measured: 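After 50 nM siRNA pool, branched-DNA assay measures six marker transcripts per well, minus blank, normalised to the geometric mean of two housekeeping transcripts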. Direction: BNIP3L mRNA: higher = more BNIP3L transcript after knockdown; NDRG1 mRNA: higher = more NDRG1 transcript after knockdown.
Here is one part, drawn at random, of about 14,000 reagents. Not all columns of the deposit are shown. Not given: the time to read-out.

COP1 (COP1 E3 ubiquitin ligase): BNIP3L mRNA, set 1 = 0.133; NDRG1 mRNA, set 1 = 0.219
EIF3M (eukaryotic translation initiation factor 3 subunit M): BNIP3L mRNA, set 1 = 0.331; NDRG1 mRNA, set 1 = 0.208
TIPARP (TCDD inducible poly(ADP-ribose) polymerase): BNIP3L mRNA, set 1 = 0.103; NDRG1 mRNA, set 1 = 0.0872
SERPINB13 (serpin family B member 13): BNIP3L mRNA, set 1 = 0.0777; NDRG1 mRNA, set 1 = 0.19
TRAPPC9 (trafficking protein particle complex subunit 9): BNIP3L mRNA, set 1 = 0.165; NDRG1 mRNA, set 1 = 0.244
SLC35B3: BNIP3L mRNA, set 1 = 0.124; NDRG1 mRNA, set 1 = 0.0467
LEFTY1 (left-right determination factor 1): BNIP3L mRNA, set 1 = 0.104; NDRG1 mRNA, set 1 = 0.235
CEP152 (centrosomal protein 152): BNIP3L mRNA, set 1 = 0.0666; NDRG1 mRNA, set 1 = 0.252
WASL (WASP like actin nucleation promoting factor): BNIP3L mRNA, set 1 = 0.093; NDRG1 mRNA, set 1 = 0.18
TFG (trafficking from ER to golgi regulator): BNIP3L mRNA, set 1 = 0.0885; NDRG1 mRNA, set 1 = 0.139
TRADD (TNFRSF1A associated via death domain): BNIP3L mRNA, set 1 = 0.0821; NDRG1 mRNA, set 1 = 0.246
PDE6B (phosphodiesterase 6B): BNIP3L mRNA, set 1 = 0.117; NDRG1 mRNA, set 1 = 0.253
